Results are given in words; binding and its absence hold for the method and conditions named. In cells and extracts the contact can be indirect. Some entries that bind do so weakly or less than the wild type. Where a sequence is shown, tags or fusion partners need not be part of it.
T1: SIN3A-HaloTag (human) (UniProt Q96ST3)
T1 sequence: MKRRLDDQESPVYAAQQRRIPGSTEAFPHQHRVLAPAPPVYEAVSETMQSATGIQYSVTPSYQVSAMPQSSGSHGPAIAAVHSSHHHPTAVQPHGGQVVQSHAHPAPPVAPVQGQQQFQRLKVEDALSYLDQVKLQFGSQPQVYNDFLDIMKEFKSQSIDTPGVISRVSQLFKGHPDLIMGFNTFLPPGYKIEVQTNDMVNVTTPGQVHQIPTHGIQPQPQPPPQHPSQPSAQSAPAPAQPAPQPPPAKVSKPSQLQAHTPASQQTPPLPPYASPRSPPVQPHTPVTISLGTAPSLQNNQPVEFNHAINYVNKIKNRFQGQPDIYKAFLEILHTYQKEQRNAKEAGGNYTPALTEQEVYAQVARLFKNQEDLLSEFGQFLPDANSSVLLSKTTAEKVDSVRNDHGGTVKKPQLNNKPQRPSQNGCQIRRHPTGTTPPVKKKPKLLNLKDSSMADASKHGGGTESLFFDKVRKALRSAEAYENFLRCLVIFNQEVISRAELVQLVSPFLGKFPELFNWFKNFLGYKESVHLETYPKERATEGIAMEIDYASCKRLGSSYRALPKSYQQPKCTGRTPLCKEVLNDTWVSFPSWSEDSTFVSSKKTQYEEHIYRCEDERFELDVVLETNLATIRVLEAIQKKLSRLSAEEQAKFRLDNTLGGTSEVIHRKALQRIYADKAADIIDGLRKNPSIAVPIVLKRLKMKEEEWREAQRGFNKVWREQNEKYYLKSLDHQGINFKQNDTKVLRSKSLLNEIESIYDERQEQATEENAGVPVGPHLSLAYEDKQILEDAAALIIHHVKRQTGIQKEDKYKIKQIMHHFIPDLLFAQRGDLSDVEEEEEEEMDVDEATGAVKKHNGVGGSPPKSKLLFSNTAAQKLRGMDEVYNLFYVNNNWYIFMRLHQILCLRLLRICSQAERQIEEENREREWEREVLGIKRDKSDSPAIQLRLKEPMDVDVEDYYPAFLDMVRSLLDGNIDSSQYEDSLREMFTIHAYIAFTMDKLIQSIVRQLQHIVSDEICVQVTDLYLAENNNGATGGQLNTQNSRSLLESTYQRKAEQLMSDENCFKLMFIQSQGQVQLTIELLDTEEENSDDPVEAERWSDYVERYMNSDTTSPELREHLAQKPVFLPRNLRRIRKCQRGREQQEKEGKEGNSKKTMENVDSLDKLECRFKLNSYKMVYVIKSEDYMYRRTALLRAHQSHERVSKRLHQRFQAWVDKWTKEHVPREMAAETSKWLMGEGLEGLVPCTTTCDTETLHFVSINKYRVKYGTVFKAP

T2: SIN3B_2-HaloTag (human) (UniProt O75182)
T2 sequence: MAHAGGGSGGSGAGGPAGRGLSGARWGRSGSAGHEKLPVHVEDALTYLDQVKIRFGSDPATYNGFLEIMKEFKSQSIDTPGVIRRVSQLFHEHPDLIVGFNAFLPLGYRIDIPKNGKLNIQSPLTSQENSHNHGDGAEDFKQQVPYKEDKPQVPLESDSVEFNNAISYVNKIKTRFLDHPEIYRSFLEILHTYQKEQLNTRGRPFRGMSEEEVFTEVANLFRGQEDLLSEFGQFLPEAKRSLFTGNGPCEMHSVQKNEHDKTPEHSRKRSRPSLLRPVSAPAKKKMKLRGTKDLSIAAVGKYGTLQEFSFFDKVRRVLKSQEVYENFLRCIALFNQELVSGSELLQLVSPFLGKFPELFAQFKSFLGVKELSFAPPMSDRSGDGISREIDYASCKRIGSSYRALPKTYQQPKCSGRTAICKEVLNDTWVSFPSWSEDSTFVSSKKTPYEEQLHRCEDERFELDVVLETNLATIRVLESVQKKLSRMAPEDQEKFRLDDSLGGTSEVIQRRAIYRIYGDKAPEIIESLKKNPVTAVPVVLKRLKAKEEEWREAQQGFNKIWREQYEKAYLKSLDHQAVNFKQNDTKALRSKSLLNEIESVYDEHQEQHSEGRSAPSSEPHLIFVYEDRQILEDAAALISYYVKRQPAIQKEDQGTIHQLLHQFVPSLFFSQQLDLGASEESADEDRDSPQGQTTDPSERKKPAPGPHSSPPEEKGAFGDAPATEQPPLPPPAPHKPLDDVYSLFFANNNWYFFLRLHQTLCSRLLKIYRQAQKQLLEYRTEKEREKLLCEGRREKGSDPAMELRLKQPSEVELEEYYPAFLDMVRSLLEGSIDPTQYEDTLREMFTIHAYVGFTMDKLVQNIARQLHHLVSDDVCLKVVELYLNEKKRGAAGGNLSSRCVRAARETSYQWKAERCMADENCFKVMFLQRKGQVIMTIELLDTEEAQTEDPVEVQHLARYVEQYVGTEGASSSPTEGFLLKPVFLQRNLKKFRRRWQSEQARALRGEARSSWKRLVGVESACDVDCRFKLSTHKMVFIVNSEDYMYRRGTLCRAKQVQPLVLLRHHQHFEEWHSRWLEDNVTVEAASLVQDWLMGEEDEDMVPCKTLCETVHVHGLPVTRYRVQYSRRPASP


What was measured:
[1] = biological target: T1, SIN3A-HaloTag (human); assay: cross-linking; SIN3A-HaloTag or SIN3B_2-HaloTag from Flp-In-293 cells enriched on Magne HaloTag Beads; 5 mM DSSO on the beads, room temperature, 40 min; eluted with AcTEV Protease; cross-linked peptides found by mass spectrometry (XlinkX, FDR 0.01)
[2] = biological target: T2, SIN3B_2-HaloTag (human); assay: as above

Row | binding [1] | binding [2] | Binder
1 | binds |  | SAP30 (protein, UniProt O75446 1-220) MNGFTPDEMSRGGDAAAAVAAVVAAAAAAASAGNGTGAGTGAEVPGAGAVSAAGPPGAAGPGPGQLCCLREDGERCGRAAGNASFSKRIQKSISQKKVKIELDKSARHLYICDYHKNLIQSVRNRRKRKGSDDDGGDSPVQDIDTPEVDLYQLQVNTLRRYKRHFKLPTRPGLNKAQLVEIVGCHFRSIPVNEKDTLTYFIYSVKNDKNKSDLKVDSGVH
2 | binds |  | SAP30L (protein, UniProt Q9HAJ7 1-183) MNGFSTEEDSREGPPAAPAAAAPGYGQSCCLIEDGERCVRPAGNASFSKRVQKSISQKKLKLDIDKSVRHLYICDFHKNFIQSVRNKRKRKTSDDGGDSPEHDTDIPEVDLFQLQVNTLRRYKRHYKLQTRPGFNKAQLAETVSRHFRNIPVNEKETLAYFIYMVKSNKSRLDQKSEGGKQLE
3 |  | binds | SIN3B_2-HaloTag (protein, UniProt O75182-2 1-1130) MAHAGGGSGGSGAGGPAGRGLSGARWGRSGSAGHEKLPVHVEDALTYLDQVKIRFGSDPATYNGFLEIMKEFKSQSIDTPGVIRRVSQLFHEHPDLIVGFNAFLPLGYRIDIPKNGKLNIQSPLTSQENSHNHGDGAEDFKQQVPYKEDKPQVPLESDSVEFNNAISYVNKIKTRFLDHPEIYRSFLEILHTYQKEQLNTRGRPFRGMSEEEVFTEVANLFRGQEDLLSEFGQFLPEAKRSLFTGNGPCEMHSVQKNEHDKTPEHSRKRSRPSLLRPVSAPAKKKMKLRGTKDLSIAAVGKYGTLQEFSFFDKVRRVLKSQEVYENFLRCIALFNQELVSGSELLQLVSPFLGKFPELFAQFKSFLGVKELSFAPPMSDRSGDGISREIDYASCKRIGSSYRALPKTYQQPKCSGRTAICKEVLNDTWVSFPSWSEDSTFVSSKKTPYEEQLHRCEDERFELDVVLETNLATIRVLESVQKKLSRMAPEDQEKFRLDDSLGGTSEVIQRRAIYRIYGDKAPEIIESLKKNPVTAVPVVLKRLKAKEEEWREAQQGFNKIWREQYEKAYLKSLDHQAVNFKQNDTKALRSKSLLNEIESVYDEHQEQHSEGRSAPSSEPHLIFVYEDRQILEDAAALISYYVKRQPAIQKEDQGTIHQLLHQFVPSLFFSQQLDLGASEESADEDRDSPQGQTTDPSERKKPAPGPHSSPPEEKGAFGDAPATEQPPLPPPAPHKPLDDVYSLFFANNNWYFFLRLHQTLCSRLLKIYRQAQKQLLEYRTEKEREKLLCEGRREKGSDPAMELRLKQPSEVELEEYYPAFLDMVRSLLEGSIDPTQYEDTLREMFTIHAYVGFTMDKLVQNIARQLHHLVSDDVCLKVVELYLNEKKRGAAGGNLSSRCVRAARETSYQWKAERCMADENCFKVMFLQRKGQVIMTIELLDTEEAQTEDPVEVQHLARYVEQYVGTEGASSSPTEGFLLKPVFLQRNLKKFRRRWQSEQARALRGEARSSWKRLVGVESACDVDCRFKLSTHKMVFIVNSEDYMYRRGTLCRAKQVQPLVLLRHHQHFEEWHSRWLEDNVTVEAASLVQDWLMGEEDEDMVPCKTLCETVHVHGLPVTRYRVQYSRRPASP
